In patent US9675072B2, “Tetrazolinone compound and application of same” (SUMITOMO CHEMICAL COMPANY, LIMITED, priority 2013, dated 2017):
Some results were stated once for a whole list of compounds, not compound by compound. For at least one compound, name, drawing or mass did not settle the structure.

Key:
Type in all cases: in vivo
[1] = test system: wheat rust fungus (Puccinia recondita); experiment: Wheat rust control test, foliage spray on wheat; conditions: 500 ppm foliage spray, wheat (SHIROGANE), inoculated 5 days after spraying
Procedure: The control effect was evaluated by visually observing the area of lesion spots on each of test plants at the time of investigation, and comparing the area of lesion spots on a plant treated with the present control agent with that on an untreated plant. The untreated plant is a plant tested under the same conditions as in Test Examples, except that foliage application of a diluted solution of a formulation containing the present compound with water is not performed.
(§1) Each of plastic pots was filled with sandy loam and wheat (cultivar: SHIROGANE) was sowed and grown in a greenhouse for 9 days. Each of the present compounds 1 to 5, 11, and 1 was diluted with water to adjust to a predetermined concentration of 500 ppm. The obtained diluted solution was sprayed over stems and leaves of the wheat so that they sufficiently adhered to the surface of the leaves of the wheat. After spraying, the plant was air-dried and cultivated at 20° C. for 5 days under illumination, and then inoculated by sprinkling with spores of wheat rust fungus (Puccinia recondita). After the inoculation, the plant was left to stand at 23° C. for one day under dark and high humidity condition, and cultivated under illumination at 20° C. for 8 days, and then the area of lesion spots was investigated.
as §1, with “to 12,” for “to 5, 11,”, “and 14” for “and 1”, “of 200” for “of 500”
Each of plastic pots was filled with sandy loam and wheat (cultivar: SHIROGANE) was sowed and grown in a greenhouse for 9 days. Each of 1-{2-[2-Methyl-4-(1,5-dimethyl-1H-pyrazol-3-yl)phenoxymethyl]phenyl}-4-methyl-1,4-dihydrotetrazol-5-one and 1-{2-[2-methyl-4-(4-chloro-1,5-dimethyl-1H-pyrazol-3-yl)phenoxymethyl]phenyl}-4-methyl-1,4-dihydrotetrazol-5-one was diluted with water to adjust to a predetermined concentration of 500 ppm. The obtained diluted solution was sprayed over stems and leaves of the wheat so that they sufficiently adhered to the surface of the leaves of the wheat. […]

[2] = test system: rice blast fungus (Magnaporthe grisea); conditions: Test Example 1; 500 ppm foliage spray; rice (NIHONBARE); 6 days in contact with infected seedlings
[3] = test system: cucumber powdery mildew fungus (Sphaerotheca fuliginea, a QoI-resistant strain, cytochrome b position 143 glycine to alanine); experiment: Cucumber powdery mildew control test, foliage spray on cucumber; conditions: Test Example 12, 200 ppm foliage spray, cucumber (SAGAMI HANJIRO), 8 days after inoculation

## Cc1cc(-c2cc(C)n(C)n2)ccc1OCc1ccccc1-n1nnn(C)c1=O [1-{2-[2-methyl-4-(1,5-dimethyl-1H-pyrazol-3-yl)phenoxymethyl]phenyl}-4-methyl-1,4-dihydrotetrazol-5-one, reference compound]
[1]; Comparative Test Example
  area of lesion spots on treated plant relative to untreated plant: ≥ 70%

## Cc1cc(-c2nn(C)c(C)c2Cl)ccc1OCc1ccccc1-n1nnn(C)c1=O [1-{2-[2-methyl-4-(4-chloro-1,5-dimethyl-1H-pyrazol-3-yl)phenoxymethyl]phenyl}-4-methyl-1,4-dihydrotetrazol-5-one, reference compound]
[1]; Comparative Test Example
  area of lesion spots on treated plant relative to untreated plant: ≥ 70%

## COc1cc(-c2ccc(OCc3ccccc3-n3nnn(C)c3=O)c(C)c2)nn1C [compound 11]
[2]
  lesion area on treated plant with respect to the lesion area on the non-treated plant: ≤ 30%
[1]; Test Example 2
  area of lesion spots on treated plant relative to untreated plant: ≤ 30%
[3]
  area of lesion spots on treated plant relative to untreated plant: ≤ 30%

## COc1c(Br)c(-c2ccc(OCc3ccccc3-n3nnn(C)c3=O)c(C)c2)nn1C [compound 12]
[2]
  lesion area on treated plant with respect to the lesion area on the non-treated plant: ≤ 30%
[1]; Test Example 2
  area of lesion spots on treated plant relative to untreated plant: ≤ 30%
[3]
  area of lesion spots on treated plant relative to untreated plant: ≤ 30%
